Source: PubChem BioAssay AID1439 (NMMLSC, 2008)
In all, about 220,000 compounds went through this assay and about 770 (0.35%) were called active. Inconclusive means that the source gave no clear call. Such entries were picked first, then a sample of the others. Cut-off read from the data, not from the text of the source: active = binding response below about 49% or above about 150%; inconclusive = no clear call, values can overlap the other calls; inactive = in between.

By UniProt entry, the sequences of proteins in these tests, tags left out.
UniProt P09471, whole entry, looked up: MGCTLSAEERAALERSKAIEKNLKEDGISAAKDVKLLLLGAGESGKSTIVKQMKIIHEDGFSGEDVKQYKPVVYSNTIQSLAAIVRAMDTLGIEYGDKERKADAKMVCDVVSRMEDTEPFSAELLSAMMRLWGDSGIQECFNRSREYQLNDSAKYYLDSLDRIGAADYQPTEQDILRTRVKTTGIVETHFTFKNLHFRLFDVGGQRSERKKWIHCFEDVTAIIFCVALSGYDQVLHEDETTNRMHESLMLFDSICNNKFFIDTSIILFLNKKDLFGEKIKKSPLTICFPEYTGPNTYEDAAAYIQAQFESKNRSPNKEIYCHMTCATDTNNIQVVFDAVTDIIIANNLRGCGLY

The compounds below were run against Guanine nucleotide-binding protein G(o) subunit alpha (Homo sapiens) (UniProt P09471) (assay: RGS7-Galphao binding modulators, primary screen, biochemical, multiplexed bead flow cytometry (AID 1439;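 note: fluorescent Galphao held in activated GDP-AlF4 state binding bead-coupled RGS7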)). Settings: at 10 µM, actives lie on both sides.
`CCCn1cnc2cc(NC(=O)c3cccs3)ccc21` was tested, and the binding response (% of control) was inactive: 97.4%.
In the case of `COCCNC(=S)N1CCC(C(=O)c2ccc3c(c2)OCCO3)CC1`, the binding response (% of control) is reported as inactive: 103%.
With `COc1ccc2c(c1)c(C(C)=O)c(C)n2C` the binding response (% of control) was inconclusive: 67.3%.
With `CCN(CC)S(=O)(=O)c1ccc(C2=NOC3(C2)N(C)c2ccccc2C3(C)C)cc1` (stereo not given) the binding response (% of control) was inactive: 107%.
`CCCCCCNc1c([N+](=O)[O-])c(=O)sc2ccccc12` was tested, and the binding response (% of control) was inconclusive: 102%.
`CN(CCO)c1nc(N)c(C#N)c(CC#N)c1C#N` was tested, and the binding response (% of control) was inconclusive: 45.5%.
`O=Cc1ccc(-c2cccc(C(=O)O)c2)o1` was tested, and the binding response (% of control) was inconclusive: 90.3%.
For `O=C(OCC(=O)N1CCc2ccccc2C1)c1cccnc1Cl`, the binding response (% of control) was inconclusive: 90.3%.
`CCn1nnnc1NCc1ccc(N2CCCC2)cc1` was tested, and the binding response (% of control) was inactive: 64.7%.
`Cc1ccc2nc(-c3ccc(NC(=O)COCC(=O)O)cc3)sc2c1` was tested, and the binding response (% of control) was inconclusive: 60%.
`Clc1cc(Sc2ccc(Br)cc2)nnc1-c1ccccc1` was tested, and the binding response (% of control) was inactive: 104%.
In the case of `COc1ccc(CN(CCC(c2ccco2)C(C)C)C(C)=O)cc1OC` (stereo not given), the binding response (% of control) is reported as inconclusive: 52.7%.
In the case of `COC(=O)CN=C1OC(=O)N2C(=O)C3=C4[C@@H](C[C@H]5C(=O)N(c6ccccc6)C(=O)[C@H]5[C@H]4[C@@]12Cc1ccccc1)[C@H]1C(=O)N(c2ccccc2)C(=O)[C@H]1[C@H]3C`, the binding response (% of control) is reported as inconclusive: 110%.
`O=C(CN1CCCN(Cc2ccc(F)cc2Cl)C1=O)NC1CCCC1` was tested, and the binding response (% of control) was inactive: 106%.
With `O=c1c2[nH]c3ccc(F)cc3c2ncn1CC1CCCO1` (stereo not given) the binding response (% of control) was inconclusive: 146%.
With `Cn1c(=O)c2cnc(-c3ccc(C(F)(F)F)cc3)nc2n(C)c1=O` the binding response (% of control) was inconclusive: 125%.
With `CCCCOC(=O)CCCc1ccc([N+](=O)[O-])cc1[N+](=O)[O-]` the binding response (% of control) was inconclusive: 93%.
For `CC1CN(C(=O)N2CCCCC2)CCN1C(=O)N1CCCCC1` (stereo not given), the binding response (% of control) was inactive: 97.2%.
For `COc1ccc(CN(CCC#N)CCC2(c3ccccc3)CC(C)N(C)CC2C)cc1OC` (stereo not given), the binding response (% of control) was inconclusive: 143%.
With `O=C(CC1Nc2ccccc2NC1=O)Nc1ccccc1NC(=O)CC1Nc2ccccc2NC1=O` (stereo not given) the binding response (% of control) was inconclusive: 105%.
In the case of `O=C(CN1CCN(Cc2ccccc2Cl)CC1)N/N=C/c1cccs1`, the binding response (% of control) is reported as inconclusive: 97.4%.
`N#C/C(=C\c1c[nH]c2ccccc12)C(N)=O` was tested, and the binding response (% of control) was inconclusive: 146%.
`C/C(=N\Nc1ccc2nncn2n1)c1cccs1` was tested, and the binding response (% of control) was inconclusive: 67.1%.
With `Cc1ccc(C(=O)Nc2ccccc2C(=O)NCc2ccccc2)cc1` the binding response (% of control) was inactive: 100%.
With `CCOC(=O)N1CCN(C(c2ccc(Cl)cc2)c2sc3nc(C)nn3c2O)CC1` (stereo not given) the binding response (% of control) was inconclusive: 64.6%.
For `FC(F)(F)c1cccc(NC(=S)NCC2COc3ccccc3O2)c1` (stereo not given), the binding response (% of control) was inactive: 104%.
`Cc1ccc(O)c(NC(=O)C2CCCCC2)c1` was tested, and the binding response (% of control) was inconclusive: 132%.
`Cc1ccccc1NC(=S)N(Cc1cccs1)C1CCCC1` was tested, and the binding response (% of control) was inconclusive: 81.8%.
In the case of `Cc1cnc(-c2nnc(N(C)C(=O)C3CCCO3)s2)cn1` (stereo not given), the binding response (% of control) is reported as inactive: 56.7%.
For `O=C(CC1NCCc2ccccc21)Nc1cccc(Cl)c1` (stereo not given), the binding response (% of control) was inconclusive: 91.6%.
With `c1ccc(CCN(Cc2ccccc2)Cc2nc(C3CC3)no2)cc1` the binding response (% of control) was inactive: 105%.
In the case of `CN(C)NC(=O)c1ccc([N+](=O)[O-])s1`, the binding response (% of control) is reported as inconclusive: 92.8%.
`Cc1ccc2nc(N3C(=O)CNC3=S)sc2c1` was tested, and the binding response (% of control) was inconclusive: 108%.
With `CC(=O)N1CSCC1C(=O)NNS(=O)(=O)c1ccccc1` (stereo not given) the binding response (% of control) was inconclusive: 94.1%.
In the case of `Cc1ccc(C(=O)Nc2cccnc2N2CCN(C)CC2)cc1`, the binding response (% of control) is reported as inconclusive: 107%.
`c1ccc(-c2nnc3n2-c2ccccc2SC3)cc1` was tested, and the binding response (% of control) was inconclusive: 6.82%.
For `C=CCN(c1ccccc1C(=O)NCC(=O)OCC)S(=O)(=O)c1ccc(C)cc1`, the binding response (% of control) was inconclusive: 98.6%.
`NC(=O)c1c(NC(=O)c2cnccn2)sc2c1CCCC2` was tested, and the binding response (% of control) was inconclusive: 88.1%.
In the case of `CCOC(=O)c1[nH]c2ccc(OC)cc2c1NC(=O)CN1CCSCC1`, the binding response (% of control) is reported as inactive: 107%.
For `CN(C(=O)CSc1nnc(-c2ccc(Cl)cc2)n1CC1CCCO1)C1CCS(=O)(=O)C1` (stereo not given), the binding response (% of control) was inconclusive: 105%.
`O=C(O)c1ccc(-n2c(O)c(C=C3N=c4ccccc4=N3)sc2=S)cc1` was tested, and the binding response (% of control) was inconclusive: 120%.
With `FC(F)(F)c1ccc(CN2C[C@@H]3C(c4ccc(Cl)nc4)C4(c5cccnc5)CC3(C4)[C@H]2c2ccccc2)cc1` (stereo not given in full) the binding response (% of control) was inconclusive: 115%.
With `CN(c1ccccc1)S(=O)(=O)c1cccc(NC(=O)COC(=O)C2CCCCC2)c1` the binding response (% of control) was inconclusive: 117%.
In the case of `Cn1cc(/C=C/C(=O)c2ccccc2)c2ccccc21`, the binding response (% of control) is reported as inconclusive: 133%.
With `O=C(Nc1ccc(SC(F)(F)F)cc1)c1ccccn1` the binding response (% of control) was inconclusive: 87.1%.
With `Cc1nc2ccccn2c1C(=O)CSc1cccc(Cl)c1` the binding response (% of control) was inconclusive: 120%.
`CC1CCCCC1NC(=O)Cn1nnc2ccccc2c1=O` (stereo not given) was tested, and the binding response (% of control) was inconclusive: 102%.
In the case of `CS(=O)(=O)NCCCCCCNS(C)(=O)=O`, the binding response (% of control) is reported as inactive: 99.7%.
`O=C(CSc1nc2ccccc2s1)N/N=C/c1ccco1` was tested, and the binding response (% of control) was inactive: 100%.
With `O=C(O)CSc1nnc(-c2ccncc2)n1Cc1ccccc1` the binding response (% of control) was inactive: 93.3%.
For `O=C(CN1c2ccccc2Sc2ccccc21)N/N=C/c1ccc(Cl)cc1Cl`, the binding response (% of control) was inconclusive: 78.7%.
In the case of `CCOc1ccccc1N1CCN(C(=O)c2csc(C)c2CC)CC1`, the binding response (% of control) is reported as inconclusive: 93%.
For `COc1ccc(O)c(C(=O)c2cc(C#N)c(=O)n(-c3ccc(Cl)cc3)c2)c1`, the binding response (% of control) was inconclusive: 116%.
For `O=C1C=C(O)c2cccc(O)c2C1=O`, the binding response (% of control) was inconclusive: 90.5%.
For `O=C(CSc1nc(O)cc(=O)n1-c1ccccc1)Nc1ccc(Br)cn1`, the binding response (% of control) was inconclusive: 95%.
`COc1cc(/C=N/NC(=O)C(N)=O)ccc1OC(=O)c1cccs1` was tested, and the binding response (% of control) was inconclusive: 82.4%.
With `CC(C)(C)Nc1cccccc1=O` the binding response (% of control) was inactive: 122%.
`COCCCNC(=S)Nc1ccc(C)cc1` was tested, and the binding response (% of control) was inconclusive: 103%.
In the case of `Cc1c(/C=N/NC(=O)c2sc3ccccc3c2Cl)cnn1C`, the binding response (% of control) is reported as inactive: 98.1%.
For `CCc1cc2c(=O)n(Cc3ccco3)c(SCC(=O)N(C)C3CCS(=O)(=O)C3)nc2s1` (stereo not given), the binding response (% of control) was inconclusive: 93.3%.
With `CC(Oc1ccc(Cl)cc1Cl)C(=O)Nc1ccc(OCC(=O)O)cc1` (stereo not given) the binding response (% of control) was inactive: 98.6%.
For `Cc1ccc(C)c(NC(=O)c2c(Cl)nc3ccccn23)c1`, the binding response (% of control) was inconclusive: 104%.
For `Cc1nc2ccccc2n2c(O)c(CC(=O)O)cc12`, the binding response (% of control) was inactive: 102%.
In the case of `O=C(Nc1ccc(F)cc1)N1CCCN(c2nccc(C(F)(F)F)n2)CC1`, the binding response (% of control) is reported as inconclusive: 83%.
In the case of `O=C(CN1c2ccccc2Sc2ccccc21)NNC(=O)Nc1cccc(Cl)c1`, the binding response (% of control) is reported as inconclusive: 92.9%.
In the case of `O=C1CCC(NC(=O)c2ccccc2)C(=O)N1` (stereo not given), the binding response (% of control) is reported as inconclusive: 136%.
For `Cc1ccc(C)n1-c1nn(S(=O)(=O)c2cccc(C(F)(F)F)c2)c2cccc(F)c12`, the binding response (% of control) was inconclusive: 104%.
In the case of `Nc1ccc(S(=O)(=O)Nc2ccc(Cl)nn2)cc1`, the binding response (% of control) is reported as inconclusive: 127%.
`CCOC(=O)c1c(OCCO)nn(-c2ccc(Cl)cc2)c1N` was tested, and the binding response (% of control) was inconclusive: 103%.
`Cc1cnc(C(=O)OCC(=O)N2CCc3ccccc32)cn1` was tested, and the binding response (% of control) was inconclusive: 102%.
In the case of `COc1ccc(C(=O)Nc2ccc(N3CCN(C(C)=O)CC3)cc2)cc1[N+](=O)[O-]`, the binding response (% of control) is reported as inconclusive: 115%.
In the case of `O=C(N/N=C/c1c[nH]c2ccccc12)c1ccc2c(c1)OCCO2`, the binding response (% of control) is reported as inconclusive: -196%.
In the case of `O=C(c1cc2cc(Br)ccc2o1)N1CCCC1`, the binding response (% of control) is reported as inconclusive: 99.2%.
In the case of `Cn1nc(C(C)(C)C)c(NC(=O)c2sccc2Cl)c1C(C)(C)C`, the binding response (% of control) is reported as inconclusive: 94.2%.
For `Cc1cc(C(=O)O)oc(=O)c1`, the binding response (% of control) was inconclusive: 106%.
For `CC(C)c1nn(-c2cc(C(F)(F)F)ccn2)c(=O)o1`, the binding response (% of control) was inconclusive: 27.6%.
For `COc1ccccc1C(=O)OCn1nnc2ccccc2c1=O`, the binding response (% of control) was inconclusive: 88.4%.
For `O=c1[nH][nH]c(-c2ccccc2)c1C=Nc1ccc(C(F)(F)F)cc1`, the binding response (% of control) was inconclusive: 110%.
`CC1(C)Cc2cccc(C(=O)Nc3ccc(F)cc3F)c2O1` was tested, and the binding response (% of control) was inconclusive: 59.1%.
For `COCCNC(=O)Cn1cc(C(=S)N2CCOCC2)c2ccccc21`, the binding response (% of control) was inconclusive: 103%.
For `CCOC(=O)CC(=O)CSCC(=O)Nc1ccc(C)cc1`, the binding response (% of control) was active: 42.8%.
For `Cc1cc(C(=O)COC(=O)c2ccc(Br)o2)c(C)n1Cc1ccco1`, the binding response (% of control) was inconclusive: 78.3%.
In the case of `COc1ccc(NC(=O)COC(=O)c2ccncc2)c(OC)c1`, the binding response (% of control) is reported as inconclusive: 98.2%.
For `CCCNC(=O)Cn1sc2nc(C)cc(C)c2c1=O`, the binding response (% of control) was inconclusive: 24.7%.
With `O=C(Nc1cccc(Oc2ccc(C(=O)O)c(C(=O)O)c2)c1)c1ccc(-c2ccccc2)cc1` the binding response (% of control) was inconclusive: 103%.
For `CCC(=O)N1CCC2(CC1)Oc1ccc(Cl)cc1C(=O)C21CC(c2cccnc2)=NO1` (stereo not given), the binding response (% of control) was inconclusive: 122%.
For `O=C(CN1CCN(Cc2ccccc2Cl)C1=O)NCCCN1CCOCC1`, the binding response (% of control) was inconclusive: 84%.
For `Cc1ccc(S(=O)(=O)NC(C)(C)CSc2nncn2C)cc1`, the binding response (% of control) was inactive: 93.1%.
With `CC(C)c1ccccc1NC(=O)COC(=O)c1cc(=O)[nH]c(=O)[nH]1` the binding response (% of control) was inconclusive: 113%.
For `NS(=O)(=O)c1cccc(NC(=O)CSc2nc3ccccc3n2-c2ccccc2)c1`, the binding response (% of control) was inconclusive: 109%.
For `CC(C)N=C(NS(=O)(=O)NC(=O)c1ccccc1)c1ccccc1`, the binding response (% of control) was inactive: 103%.
`CCOc1ccc(NC(=O)C(Cc2ccccc2)NC(=O)C2CCCCC2)cc1` (stereo not given) was tested, and the binding response (% of control) was inactive: 99.4%.
In the case of `NC(=O)NOCc1ccccc1`, the binding response (% of control) is reported as inconclusive: 104%.
In the case of `COc1cccc(NC(=O)Nc2cc(C)ccc2OC)c1`, the binding response (% of control) is reported as active: 26.3%.
With `CC(C(=O)Nc1ccc(C#N)cc1)N(C)CC(=O)Nc1ccccc1Br` (stereo not given) the binding response (% of control) was inactive: 103%.
